The chains are these.
B1: Nucleolysin TIA-1 (protein, UniProt P52912 1-386)
chain: MEDEMPKTLYVGNLSRDVTEALILQLFSQIGPCKNCKMIMDTAGNDPYCFVEFHEHRHAAAALAAMNGRKIMGKEVKVNWATTPSSQKKDTSSSTVVSTQRSQDHFHVFVGDLSPEITTEDIKAAFAPFGRISDARVVKDMATGKSKGYGFVSFFNKWDAENAIQQMGGQWLGGRQIRTNWATRKPPAPKSTYESNTKQLSYDEVVSQSSPNNCTVYCGGVTSGLTEQLMRQTFSPFGQIMEIRVFPDKGYSFVRFSSHESAAHAIVSVNGTTIEGHVVKCYWGKETLDMINPVQQQNQIGYPPTYGQWGQWYGNAQQIGQYVPNGWQVPAYGVYGQPWSQQGFNQTQSSAPWMGPNYSVPPPQGQNGSMLPSQPAGYRVAGYETQ
B2: U2 small nuclear ribonucleoprotein A' (protein, UniProt P57784 1-255)
chain: MVKLTAELIEQAAQYTNAVRDRELDLRGYKIPVIENLGATLDQFDAIDFSDNEIRKLDGFPLLRRLKTLLVNNNRICRIGEGLDQALPCLTELILTNNSLVELGDLDPLASLKSLTYLSILRNPVTNKKHYRLYVIYKVPQVRVLDFQKVKLKERQEAEKMFKGKRGAQLAKDIARRSKTFNPGAGLPTDKKKGGPSAGDVEAIKNAIANASTLAEVERLKGLLQSGQIPGRERRSGPSDEGEEEIEDDTVTNGS
B3: Symplekin (protein, UniProt Q80X82 1-1288)
chain: MASSSGDSVTRRSVASQFFTQEEGPSIDGMTTSERVVDLLNQAALITNDSKITVLKQVQELIINKDPTLLDNFLDEIIAFQADKSIEVRKFVIGFIEEACKRDIELLLKLIANLNMLLRDENVNVVKKAILTMTQLYKVALQWMVKSRVISDLQEACWDMVSSMAGEIILLLDSDNDGIRTHAIKFVEGLIVTLSPRMADSEVPRRQEHDISLDRIPRDHPYIQYNVLWEEGKAAVEQLLKFMVHPAISSINLTTALGSLANIARQRPMFMSEVIQAYETLHANLPPTLAKSQVSSVRKNLKLHLLSVLKHPASLEFQAQITTLLVDLGTPQAEIARNMPSSKDSRKRPRDDTDSTLKKMKLEPNLGEDDEDKDLEPGPSGTSKASAQISGQSDTDITAEFLQPLLTPDNVANLVLISMVYLPETMPASFQAIYTPVESAGTEAQIKHLARLMATQMTAAGLGPGVEQTKQCKEEPKEEKVVKPESVLIKRRLSVQGQAISVVGSQSTMSPLEEEVPQAKRRPEPIIPVTQPRLAGAGGRKKIFRLSDVLKPLTDAQVEAMKLGAVKRILRAEKAVACSGAAQVRIKILASLVTQFDSGFKAEVLSFILEDVRARLDLAFAWLYQEYNAYLAAGTSGTLDKYEDCLICLLSGLQEKPDQKDGIFTKVVLEAPLITESALEVIRKYCEDESRAYLGMSTLGDLIFKRPSRQFQYLHVLLDLSSHEKDRVRSQALLFIKRMYEKEQLREYVEKFALNYLQLLVHPNPPSVLFGADKDTEVAAPWTEETVKQCLYLYLALLPQNHKLIHELAAVYTEAIADIKRTVLRVIEQPIRGMGMNSPELLLLVENCPKGAETLVTRCLHSLTDKVPPSPELVKRVRDLYHKRLPDVRFLIPVLNGLEKKEVIQALPKLIKLNPIVVKEVFNRLLGTQHGEGNSALSPLNPGELLIALHNIDSVKCDMKSIIKATNLCFAERNVYTSEVLAVVMQQLMEQSPLPMLLMRTVIQSLTMYPRLGGFVMNILARLIMKQVWKYPKVWEGFIKCCQRTKPQSFQVILQLPPQQLGAVFDKCPELREPLLAHVRSFTPHQQAHIPNSIMTILEATGKQEPEVKEAPSGPLEEDDLEPLALALAPAPAPAPAPAPAPAPAPRPPQDLIGLRLAQEKALKRQLEEEQKQKPTGIGAPAACVSSTPSVPAAARAGPTPAEEVMEYREEGPECETPAIFISMDDDSGLAETTLLDSSLEGPLPKEAAAVGSSSKDERSPQNLSHAVEEALKTSSPETREPESKGNS

Results are given in words; binding and its absence hold for the method and conditions named. Binding seen in cells or lysates may run through a third protein. Here binding means that the protein was enriched with, or labelled near, the bait; the list need not be complete.

For this experiment, the target named is Histone variant H2A.B.3 (mouse). Briefly: affinity purification with mass spectrometry; formaldehyde crosslinked mononucleosomes (MNase I) from testes of 28-30 day old mice; anti-H2A.B.3 or anti-H2A.Z antibody covalently bound to Dynabeads, 4 hours at 4°C; washes with 1 M NaCl; LC-MS/MS; two replicates each; proteins common to H2A.Z and H2A.B.3 removed.
Regarding B1, the binding result is listed as “binds”.

In the case of B2, the binding entry is on record as “binds”. B3: the binding result is “binds”.

The record behind these values is PMC5345878.
